Source: PubChem BioAssay AID1259254 (NCATS, 2017)
Here is one part, drawn at random, of about 59,000 deposited reagents. In the full data, about 1,550 (2.6%) were called active. 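G2 share is only a proxy for re-replication; each gene was hit by three separate siRNAs, and active genes were retested.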 The raw values are shown without normalisation. A number with no mark means an inactive call. Reagents against one gene are numbered here. Reagent sequences are not shown. Not given: the amount of reagent.

Assay: 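Gene knock-downs that lead to re-replication, shown by excess G2 DNA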 (primary screen)
System: human HCT116 colorectal cancer cells
Knock-down reagent: single siRNA against human genes
Timing: 3 days
Read-out: 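Nuclei stained with Hoechst and imaged; cell-cycle phase assigned by DNA content; G2 share scaled per plate, non-targeting siRNA 0%, GMNN siRNA 100%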
Reading the numbers: G2 robust z-score and G2 cells, % of GMNN control: higher = more G2 cells, more excess DNA replication; raw share of cells in G2: higher = larger share of cells with G2 DNA content
Call rule: 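Active siRNAs have a G2 robust z of 5 or more median absolute deviations over the median, which in these data means about 38% or higher of GMNN control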

no.	Target gene	reagent no.	G2 robust z-score	G2 cells, % of GMNN control	raw share of cells in G2 (%)
1	DZANK1	1	-0.258	1.15	3.5
2	DZANK1	2	-0.798	-2.65	3.51
3	DZANK1	3	-0.783	-2.54	3.08
4	RBPMS2	1	-1.1	-4.8	2.53
5	RBPMS2	2	-1.41	-6.98	2.24
6	RBPMS2	3	-0.149	1.92	6.73
7	KCNH4	1	0.324	5.24	7.2
8	KCNH4	2	1.17	11.2	8.57
9	KCNH4	3	4.37	33.7	17.5
10	TNFSF9	1	3.47	27.4	17.3
11	TNFSF9	2	1.45	13.2	9.11
12	TNFSF9	3	0.365	5.53	5.3
13	PRB4	1	2.06	17.5	12.4
14	PRB4	2	0.0327	3.2	5.48
15	PRB4	3	0.835	8.84	6.55
16	RPL37A	1	5.08 (active)	38.7	21.4
17	RPL37A	2	2.02	17.2	11
18	RPL37A	3	4.19	32.4	15.1
19	MDH1	1	0.375	5.61	7.69
20	MDH1	2	-0.758	-2.36	4.45
21	MDH1	3	0.499	6.48	5.33
22	PLRG1	1	-0.29	0.929	5.37
23	PLRG1	2	-0.116	2.15	5.07
24	PLRG1	3	0.434	6.02	5.53
25	SEPTIN4	1	2.51	20.7	12.1
26	SEPTIN4	2	-0.965	-3.82	3.22
27	SEPTIN4	3	1.87	16.1	9.51
28	SEPTIN4	4	0.151	4.03	5.11
29	SEPTIN4	5	4.66	35.7	16.9
30	SEPTIN4	6	1.11	10.8	6.54
31	NOVA1	1	-0.353	0.483	3.35
32	NOVA1	2	2.21	18.5	12.8
33	NOVA1	3	-1.2	-5.49	3.24
34	DCD	1	-0.768	-2.44	3.12
35	DCD	2	-0.529	-0.757	3.1
36	DCD	3	-0.639	-1.53	1.37

Part of the list above in another layout.
{"Target gene": "RPL37A", "reagent no.": 3, "G2 robust z-score": 4.19, "G2 cells, % of GMNN control": 32.4, "raw share of cells in G2 (%)": 15.1}
{"Target gene": "MDH1", "reagent no.": 1, "G2 robust z-score": 0.375, "G2 cells, % of GMNN control": 5.61, "raw share of cells in G2 (%)": 7.69}
{"Target gene": "MDH1", "reagent no.": 2, "G2 robust z-score": -0.758, "G2 cells, % of GMNN control": -2.36, "raw share of cells in G2 (%)": 4.45}
{"Target gene": "MDH1", "reagent no.": 3, "G2 robust z-score": 0.499, "G2 cells, % of GMNN control": 6.48, "raw share of cells in G2 (%)": 5.33}
{"Target gene": "PLRG1", "reagent no.": 1, "G2 robust z-score": -0.29, "G2 cells, % of GMNN control": 0.929, "raw share of cells in G2 (%)": 5.37}
{"Target gene": "PLRG1", "reagent no.": 2, "G2 robust z-score": -0.116, "G2 cells, % of GMNN control": 2.15, "raw share of cells in G2 (%)": 5.07}
{"Target gene": "PLRG1", "reagent no.": 3, "G2 robust z-score": 0.434, "G2 cells, % of GMNN control": 6.02, "raw share of cells in G2 (%)": 5.53}

The results go on.
no.	Target gene	reagent no.	G2 robust z-score	G2 cells, % of GMNN control	raw share of cells in G2 (%)
37	RPL26P30	1	-0.351	0.497	3.54
38	RPL26P30	2	6.27 (active)	47	20.5
39	RPL26P30	3	-0.884	-3.25	1.81
40	RXFP3	1	2.55	20.9	13.3
41	RXFP3	2	-0.443	-0.147	4.47
42	RXFP3	3	-0.898	-3.35	2.24
43	PRORP	1	-0.55	-0.9	4.92
44	PRORP	2	6.44 (active)	48.2	24.1
45	PRORP	3	-0.817	-2.78	2.39
46	ZNF232	1	2.62	21.4	14.6
47	ZNF232	2	0.91	9.37	7.56
48	ZNF232	3	0.428	5.98	6.49
49	CADM1	1	-0.533	-0.783	5.81
50	CADM1	2	4.63	35.5	16
51	CADM1	3	-0.829	-2.86	3.05
52	SLC13A1	1	-0.571	-1.05	4.19
53	SLC13A1	2	-0.24	1.28	6.11
54	SLC13A1	3	-1.5	-7.57	1.45
55	USP11	1	0.747	8.22	8.43
56	USP11	2	1.83	15.8	10.5
57	USP11	3	-0.288	0.944	4.26
58	GTF2H2	1	0.297	5.06	7.22
59	GTF2H2	2	3.4	26.9	12.9
60	GTF2H2	3	0.897	9.28	7.14
61	HOMER3	1	-0.646	-1.58	4.61
62	HOMER3	2	-0.874	-3.18	3.46
63	HOMER3	3	0.42	5.92	5.22
64	TRIM39	1	2.18	18.3	14.5
65	TRIM39	2	3.42	27	14.1
66	TRIM39	3	0.671	7.69	7.54
67	SLX4IP	1	3.2	25.5	13.8
68	SLX4IP	2	-0.538	-0.82	2.84
69	SLX4IP	3	-0.256	1.17	3
